Source: PubChem BioAssay AID1259405 (NCATS, 2018)
Test: 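Mouse-designed siRNAs used to find CHO productivity engineering targets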 (primary screen). Cells: Chinese hamster CHO-K1 ovary cells with stable secreted eGFP expression. Knock-down reagent: single siRNA against mouse genes, 0.8 pmol siRNA per well (2 µl of 400 nM stock). Time to read-out: 3 days. Measured: 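Per-well intracellular GFP measured by laser scanning cytometry, plus viability from ATP luminescence, each relative to plate median of non-targeting control wells, in %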. Scale: GFP, % of control: higher = more GFP per well, higher productivity; viability (ATP), % of control: higher = more viable cells (more ATP). Hit rule: 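a knock-down is called active if GFP reaches 120% or more of non-targeting control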.
Shown is a random part of about 50,000 reagents. About 4,000 of all reagents (8%) were called active. 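Mouse siRNA library applied to hamster cells; one well for each siRNA.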 Unmarked entries are inactive. Reagents against one gene are numbered here.

| target gene | siRNA no. | GFP, % of control | viability (ATP), % of control |
| --- | --- | --- | --- |
| Sp4 (trans-acting transcription factor 4) | 1 | 67.7 | 43.6 |
| Sp4 (trans-acting transcription factor 4) | 2 | 53.1 | 59.9 |
| Mbtps1 (membrane-bound transcription factor peptidase, site 1) | 1 | 75.9 | 86.7 |
| Mbtps1 (membrane-bound transcription factor peptidase, site 1) | 2 | 140 (active) | 101 |
| Mbtps1 (membrane-bound transcription factor peptidase, site 1) | 3 | 48.4 | 60.1 |
| Cdh1 (cadherin 1) | 1 | 69.8 | 71.2 |
| Cdh1 (cadherin 1) | 2 | 123 (active) | 83 |
| Cdh1 (cadherin 1) | 3 | 71.3 | 47.7 |
| Zfp36l2 (zinc finger protein 36, C3H type-like 2) | 1 | 136 (active) | 101 |
| Zfp36l2 (zinc finger protein 36, C3H type-like 2) | 2 | 71.7 | 62.8 |
| Arih1 (ariadne RBR E3 ubiquitin protein ligase 1) | 1 | 61.4 | 66.2 |
| Arih1 (ariadne RBR E3 ubiquitin protein ligase 1) | 2 | 82.7 | 64.1 |
| Arih1 (ariadne RBR E3 ubiquitin protein ligase 1) | 3 | 148 (active) | 118 |
| Parp9 (poly (ADP-ribose) polymerase family, member 9) | 1 | 87.7 | 66.7 |
| Parp9 (poly (ADP-ribose) polymerase family, member 9) | 2 | 82.9 | 84.8 |
| Parp9 (poly (ADP-ribose) polymerase family, member 9) | 3 | 80.5 | 77.7 |
| Gnai1 (G protein subunit alpha i1) | 1 | 74 | 78.5 |
| Gnai1 (G protein subunit alpha i1) | 2 | 56.9 | 56.3 |
| Gnai1 (G protein subunit alpha i1) | 3 | 30.3 | 28.6 |
| Ins2 (insulin II) | 1 | 71.7 | 40.5 |
| Ins2 (insulin II) | 2 | 59.5 | 59.9 |
| Ins2 (insulin II) | 3 | 114 | 129 |
| Obp1a (odorant binding protein IA) | 1 | 81.4 | 50.1 |
| Obp1a (odorant binding protein IA) | 2 | 93.2 | 92.8 |
| Obp1a (odorant binding protein IA) | 3 | 48.9 | 53.5 |
| Atp8a2 | 1 | 86.7 | 74.2 |
| Atp8a2 | 2 | 59.5 | 92.6 |
| Atp8a2 | 3 | 13.7 | 12.3 |
| Prune2 (prune homolog 2) | 1 | 66 | 75.4 |
| Prune2 (prune homolog 2) | 2 | 94 | 78.4 |
| Prune2 (prune homolog 2) | 3 | 77.1 | 78.8 |
| Neurod4 (neurogenic differentiation 4) | 1 | 123 (active) | 79.8 |
| Neurod4 (neurogenic differentiation 4) | 2 | 94.7 | 73.4 |
| Neurod4 (neurogenic differentiation 4) | 3 | 90.7 | 99.8 |
| 1700025G04Rik (RIKEN cDNA 1700025G04 gene) | 1 | 59.9 | 86.8 |
| 1700025G04Rik (RIKEN cDNA 1700025G04 gene) | 2 | 60.1 | 113 |
| 1700025G04Rik (RIKEN cDNA 1700025G04 gene) | 3 | 89.1 | 112 |
| Gsk3a (glycogen synthase kinase 3 alpha) | 1 | 30.5 | 62.2 |
| Scly (selenocysteine lyase) | 1 | 70.4 | 76.3 |
| Scly (selenocysteine lyase) | 2 | 64.5 | 65.5 |
| Scly (selenocysteine lyase) | 3 | 55.7 | 60.9 |
| Fgf12 (fibroblast growth factor 12) | 1 | 50.3 | 69.1 |
| Fgf12 (fibroblast growth factor 12) | 2 | 57.8 | 62.3 |
| Fgf12 (fibroblast growth factor 12) | 3 | 55.3 | 51.7 |
| Anp32e (acidic nuclear phosphoprotein 32 family member E) | 1 | 128 (active) | 106 |
| Anp32e (acidic nuclear phosphoprotein 32 family member E) | 2 | 54.2 | 76.4 |
| Anp32e (acidic nuclear phosphoprotein 32 family member E) | 3 | 99 | 96.2 |
| Zscan5b (zinc finger and SCAN domain containing 5B) | 1 | 60.7 | 86 |
| Zscan5b (zinc finger and SCAN domain containing 5B) | 2 | 68.3 | 72.7 |
| Zscan5b (zinc finger and SCAN domain containing 5B) | 3 | 147 (active) | 88.4 |
| Psg18 (pregnancy specific beta-1-glycoprotein 18) | 1 | 29.2 | 31.7 |
| Psg18 (pregnancy specific beta-1-glycoprotein 18) | 2 | 75.9 | 56.1 |
| Psg18 (pregnancy specific beta-1-glycoprotein 18) | 3 | 88 | 89.3 |
| Tmem18 (transmembrane protein 18) | 1 | 62 | 64.8 |
| Tmem18 (transmembrane protein 18) | 2 | 71.4 | 69.8 |
| Tmem18 (transmembrane protein 18) | 3 | 81.3 | 88.2 |
| Keap1 (kelch-like ECH-associated protein 1) | 1 | 91.6 | 72.4 |
| Keap1 (kelch-like ECH-associated protein 1) | 2 | 122 (active) | 127 |
| Fgfrl1 (fibroblast growth factor receptor-like 1) | 1 | 65.7 | 50 |
| Fgfrl1 (fibroblast growth factor receptor-like 1) | 2 | 55.8 | 92.3 |
| Fgfrl1 (fibroblast growth factor receptor-like 1) | 3 | 31.1 | 25.5 |
| Dclre1b (DNA cross-link repair 1B) | 1 | 69.6 | 93.5 |
| Dclre1b (DNA cross-link repair 1B) | 2 | 58.2 | 38.8 |
| Dclre1b (DNA cross-link repair 1B) | 3 | 85.9 | 62.7 |
| Sp100 (nuclear antigen Sp100) | 1 | 60.6 | 65 |
| Sp100 (nuclear antigen Sp100) | 2 | 87.2 | 82.5 |
| Sp100 (nuclear antigen Sp100) | 3 | 43.5 | 38.3 |
| Gprc6a (G protein-coupled receptor, family C, group 6, member A) | 1 | 144 (active) | 84.9 |
| Gprc6a (G protein-coupled receptor, family C, group 6, member A) | 2 | 90.6 | 67.4 |
| Gprc6a (G protein-coupled receptor, family C, group 6, member A) | 3 | 68 | 61.8 |
| Lat (linker for activation of T cells) | 1 | 54.4 | 54.1 |
| Lat (linker for activation of T cells) | 2 | 105 | 89.1 |
| Lat (linker for activation of T cells) | 3 | 98.7 | 97.3 |
| Or51a25 (olfactory receptor family 51 subfamily A member 25) | 1 | 90.2 | 91.8 |
| Or51a25 (olfactory receptor family 51 subfamily A member 25) | 2 | 96.9 | 72.5 |
| Or51a25 (olfactory receptor family 51 subfamily A member 25) | 3 | 61.5 | 94.2 |
| Gjb5 (gap junction protein, beta 5) | 1 | 92.9 | 75.8 |
| Gjb5 (gap junction protein, beta 5) | 2 | 114 | 99.1 |
| Gjb5 (gap junction protein, beta 5) | 3 | 110 | 132 |
| Psd4 (pleckstrin and Sec7 domain containing 4) | 1 | 69.8 | 87.2 |
| Psd4 (pleckstrin and Sec7 domain containing 4) | 2 | 112 | 124 |
| Psd4 (pleckstrin and Sec7 domain containing 4) | 3 | 49 | 35.6 |
| Plekha3 (pleckstrin homology domain containing A3) | 1 | 88.6 | 81.5 |
| Plekha3 (pleckstrin homology domain containing A3) | 2 | 71.4 | 71.1 |
| Plekha3 (pleckstrin homology domain containing A3) | 3 | 135 (active) | 47.6 |

Records listed so far whose gene name begins with T or t:
| target gene | siRNA no. | GFP, % of control | viability (ATP), % of control |
| --- | --- | --- | --- |
| Tmem18 (transmembrane protein 18) | 1 | 62 | 64.8 |
| Tmem18 (transmembrane protein 18) | 2 | 71.4 | 69.8 |
| Tmem18 (transmembrane protein 18) | 3 | 81.3 | 88.2 |
